# Publication PMC7819943, “Rice protein-binding microarrays: a tool to detect cis-acting elements near promoter regions in rice”
# The other results are listed elsewhere or left out.
# Molecular target: T1, OsSMF1 (Oryza sativa, UniProt Q6ZLB0 1-436)
# T1 sequence: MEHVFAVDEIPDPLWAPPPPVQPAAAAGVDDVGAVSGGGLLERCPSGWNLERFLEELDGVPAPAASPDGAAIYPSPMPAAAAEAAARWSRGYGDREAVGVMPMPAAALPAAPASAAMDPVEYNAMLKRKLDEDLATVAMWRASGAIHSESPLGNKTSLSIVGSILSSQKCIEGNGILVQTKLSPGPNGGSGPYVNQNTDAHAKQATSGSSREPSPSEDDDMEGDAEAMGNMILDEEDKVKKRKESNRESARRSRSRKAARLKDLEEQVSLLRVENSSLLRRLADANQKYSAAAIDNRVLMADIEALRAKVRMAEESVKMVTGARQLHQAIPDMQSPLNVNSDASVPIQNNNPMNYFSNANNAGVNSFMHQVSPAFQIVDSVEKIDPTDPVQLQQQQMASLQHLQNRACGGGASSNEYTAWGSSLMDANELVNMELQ
# Experiment: protein-binding microarray (RPBM); PBS, 2% BSA, 51.3 ng/ul salmon testes DNA, 50 uM zinc acetate, 200 nM TF, 25 C, 1 h; high values mean tight binding
# Conditions: protein: recombinant; tags: N-terminal polyhistidine and DsRed monomer fusion (pET32a); chain copies: 2; label: CyDye5-dUTP incorporated in the synthesized complementary strand; 3' TTTTT single-stranded linker to array surface; dsDNA, one strand shown
# Outline: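 Per-feature fluorescence intensity (arbitrary units), read on an Axon 4000B scanner, is the binding signal. Transcription factors carrying an N-terminal polyhistidine tag and DsRed fusion were expressed in E. coli BL21-CodonPlus and purified on Ni–NTA. A custom Agilent array, made double-stranded by primer extension with Cy5-dUTP and blocked with 2% BSA, was incubated with 200 nM protein in PBS, 2% BSA, salmon testes DNA and 50 µM zinc acetate at 25 °C for 1 h and then washed.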
row,Sequence,binding signal
1,AGGTGACACGTCGTCACCTCTATTTCCCCTTTCTCTCTTTCGGAGTCACCTAGTGCAG,18500 fluorescence intensity (a.u.)
2,GTTGCCTCTTAATTTATGAGTGAATGATGTGGATAAATTTCGGAGTCACCTAGTGCAG,4770 fluorescence intensity (a.u.)
3,GTCCCGGCGTGCGGGCGTGGTGCTTCTCCCTTCGCTGTCGCGGAGTCACCTAGTGCAG,3570 fluorescence intensity (a.u.)
4,GCAAAATAGAGTTAGGTCGGGATCACACGAATCTGTAAGACGGAGTCACCTAGTGCAG,29800 fluorescence intensity (a.u.)
5,TTTTGCTGACTAGGATATACCACATCAGCAAAACCCGATACGGAGTCACCTAGTGCAG,12400 fluorescence intensity (a.u.)
6,TTGTACTGTTGTGTCATCGCGGTCCCTAAACTCGCAAATTCGGAGTCACCTAGTGCAG,5730 fluorescence intensity (a.u.)
7,CTCATCAGTTGACCCCTGTCAATTTAGTGTGACTATGTGACGGAGTCACCTAGTGCAG,3700 fluorescence intensity (a.u.)
8,TTCTGTAACTTTTCCAACTCACCTTCCTCGCTTCCCACGCCGGAGTCACCTAGTGCAG,4820 fluorescence intensity (a.u.)
9,ATTCTTCCACACGAGATTGACTACATGGGCATCGAGAAATCGGAGTCACCTAGTGCAG,3890 fluorescence intensity (a.u.)
10,ACTGCATTATAACTACAGTGTAAGCACGGTAACTCCAATGCGGAGTCACCTAGTGCAG,3450 fluorescence intensity (a.u.)
11,GCGATTGATGTTGCTGGCCAGGTGCAGTATCACCTGTAAGCGGAGTCACCTAGTGCAG,4160 fluorescence intensity (a.u.)
12,TTCTTCTCAAGCTCTCTCAGTTGTGTTACAAGGATCGATGCGGAGTCACCTAGTGCAG,4640 fluorescence intensity (a.u.)
13,GCCAGGATCCACCATCACTGAGACGCTGACTCCTCATTCGCGGAGTCACCTAGTGCAG,4720 fluorescence intensity (a.u.)
14,AGGTGGTGTGATGTGAAAGTAAATTTGTCATCCCCGGTGCCGGAGTCACCTAGTGCAG,4390 fluorescence intensity (a.u.)
15,CGCGTGCGTGCGTGCGCGTTTCCACCCGATTTAAAGAGACCGGAGTCACCTAGTGCAG,11800 fluorescence intensity (a.u.)
16,GGTGTGTGCCCACTCGTCACGTGTATGCCATGCCTGACACCGGAGTCACCTAGTGCAG,3580 fluorescence intensity (a.u.)
17,AGGCACCGCCCCGCCGCCAGCGCCACCACATCGTCCGACGCGGAGTCACCTAGTGCAG,3370 fluorescence intensity (a.u.)
18,CAAATGTATAAGATATAAATCACACTTAAAGTACTATGAGCGGAGTCACCTAGTGCAG,3150 fluorescence intensity (a.u.)
19,CATCGACCTCGCCAAGGCCGACGTCGACCGTGACCACGTCCGGAGTCACCTAGTGCAG,3740 fluorescence intensity (a.u.)
20,CTCAACATCCCTTATATTTCCCTATTCTTGCAGAATGTGCCGGAGTCACCTAGTGCAG,3330 fluorescence intensity (a.u.)
21,TATGAAACCTGAAAACAACTTAACACGGGTGTCCTTCGTCCGGAGTCACCTAGTGCAG,17500 fluorescence intensity (a.u.)
22,TCATCTCACCATCCATCGATCACACATCAGCTAGCTCGATCGGAGTCACCTAGTGCAG,4810 fluorescence intensity (a.u.)
23,AAAGATCCATGTAGGCGCCACATCAGCCAAAACCGGGGACCGGAGTCACCTAGTGCAG,9110 fluorescence intensity (a.u.)
24,GCCATACACGTACGGCAAATTCCACCCAAAATCGCTTTCACGGAGTCACCTAGTGCAG,21800 fluorescence intensity (a.u.)
25,TTGCTCTAAGCGATCGTTTCGAAAACGACATATTTGTAAACGGAGTCACCTAGTGCAG,3890 fluorescence intensity (a.u.)
26,AGCAATGACAACGTGTTCGGGCGCCGTGACCCCTTTTGGGCGGAGTCACCTAGTGCAG,3690 fluorescence intensity (a.u.)
27,GCGGCGGCGGCGTTCTTGAGCTCGAGGTAGACCGAGACGACGGAGTCACCTAGTGCAG,5350 fluorescence intensity (a.u.)

row,Sequence,binding signal
1,CTTCATGTTCGACCCGTAGTACAGCTATTCTTCAACTCTCCGGAGTCACCTAGTGCAG,3440 fluorescence intensity (a.u.)
2,ATCTAATTGCCACATAAGCACTACGTCAATAACACGTTAGCGGAGTCACCTAGTGCAG,10100 fluorescence intensity (a.u.)
3,TTCTTCGTGTATGATTTATTTAAACAAAATGTGTCATTTCCGGAGTCACCTAGTGCAG,3400 fluorescence intensity (a.u.)
4,AGCCAGCCAAGCCGATCGATCGACCAACAGGAAGGCAAGGCGGAGTCACCTAGTGCAG,27800 fluorescence intensity (a.u.)
5,CAAATTGGACTAGATAAAGAGTAGAAGACACGTCAGCGAACGGAGTCACCTAGTGCAG,14300 fluorescence intensity (a.u.)
6,AATTTTCTCTCTCCAATAGAATCACGCGTCACGTAATCCCCGGAGTCACCTAGTGCAG,5360 fluorescence intensity (a.u.)
7,CTTCAGTTTTGCATCTCCACCCTTCCTCTCTTGCAGCAGCCGGAGTCACCTAGTGCAG,18300 fluorescence intensity (a.u.)
8,GCAGGGAATGTTCCATTTGCCACGTTATGTGCTCTTAGCTCGGAGTCACCTAGTGCAG,11100 fluorescence intensity (a.u.)
9,ATTAAGGTCTGAAAGTTTGCATAGTCAACCTCTTCCATCTCGGAGTCACCTAGTGCAG,4140 fluorescence intensity (a.u.)
10,ACCTCTCCAATCCCAAGGCCAACAATTTATGCAACAGCACCGGAGTCACCTAGTGCAG,3280 fluorescence intensity (a.u.)
11,TTCTTGCTGGGATTTGATGCAGGCATTGAGACATTGATGACGGAGTCACCTAGTGCAG,3440 fluorescence intensity (a.u.)
12,CATTAATCTTCTCCTCACGCTTAGTCACCATTTCTATACTCGGAGTCACCTAGTGCAG,9380 fluorescence intensity (a.u.)
13,CCCTCGCGCCGTCGCCGTCGCCAAGAGCCGCCACTTCCGCCGGAGTCACCTAGTGCAG,3200 fluorescence intensity (a.u.)
14,CCTCAGCGCCACATCAACTGGCGCTAAATGTCGTGTCACCCGGAGTCACCTAGTGCAG,8070 fluorescence intensity (a.u.)
15,GGTACAATGTTATGTGATCTTGCTCAGGTGGCAGATGGTCCGGAGTCACCTAGTGCAG,3380 fluorescence intensity (a.u.)
16,CATAACAACCACTAAAACATTATGAATATTTTGTACATACCGGAGTCACCTAGTGCAG,22800 fluorescence intensity (a.u.)
17,TGTGTTGGTGTTATGAGGTGTTGGATTAGATGAGAGGAATCGGAGTCACCTAGTGCAG,4280 fluorescence intensity (a.u.)
18,CCGACGCCACCGCCCACGTGTCCTCTCCTCCCACCCGCCACGGAGTCACCTAGTGCAG,9460 fluorescence intensity (a.u.)
19,AGATCATTAGTTAGCACATATCATCCACATCATCCTATTTCGGAGTCACCTAGTGCAG,5980 fluorescence intensity (a.u.)
20,CAAAAGAGAGACTTGCCTGAGTTTCTGTAGCCGGTACTATCGGAGTCACCTAGTGCAG,4350 fluorescence intensity (a.u.)
21,CTTCTTTGGTCCCTAGGTTGCTGGCATTTTGGTGCCTACTCGGAGTCACCTAGTGCAG,3870 fluorescence intensity (a.u.)
22,CCCGTGCCTAGACCACGTCCATGCGTGTATTAATTAGTGTCGGAGTCACCTAGTGCAG,3420 fluorescence intensity (a.u.)
23,ACTCCCATGTCAATGTGACTCATCTTCCCAATTAAAATAGCGGAGTCACCTAGTGCAG,8080 fluorescence intensity (a.u.)
24,AATTCTTCCTGCCTCATAACGCACGAACGCACGTCACGAACGGAGTCACCTAGTGCAG,3420 fluorescence intensity (a.u.)
25,AGTCCTGGACGCGTCGACGCGTGGTGACGACGTGTCGACGCGGAGTCACCTAGTGCAG,9290 fluorescence intensity (a.u.)
26,GCAGATCTGACAGCTGACTACAGTCATGTGAACTATTCGTCGGAGTCACCTAGTGCAG,4930 fluorescence intensity (a.u.)
27,TGATTGTGACACTAGCACGACGCACTTTCCTCTATATACACGGAGTCACCTAGTGCAG,3630 fluorescence intensity (a.u.)

# Part of the list above, reformatted:
row	Sequence	binding signal
7	CTCATCAGTTGACCCCTGTCAATTTAGTGTGACTATGTGACGGAGTCACCTAGTGCAG	3700 fluorescence intensity (a.u.)
13	GCCAGGATCCACCATCACTGAGACGCTGACTCCTCATTCGCGGAGTCACCTAGTGCAG	4720 fluorescence intensity (a.u.)
